Measurements published in article PMC12040169 (PLOS Biology, 2025).
This is one part of the list.

What follows are molecules tested on T1, CTL2-GFP (C. trachomatis L2/434/Bu, GFP-expressing). Conditions: bulk GFP, single well; 28.5 h, 10 µM; inhibitor.
T1 construct: L2/434/Bu, GFP-expressing
Set-up: species or system HeLa; Intracellular C. trachomatis growth in HeLa cells, bulk GFP fluorescence relative to DMSO
`CSCCC(NC(=O)CCc1ccccc1)c1nnc2ccccn12` (centres unmarked) [CBK304350] was tested, and the “% of control remaining” value was 106.848%. For `CC(=O)Nc1cccc(-c2nccnc2NCc2ccc3c(c2)OCO3)c1` [CBK037972], the “% of control remaining” value was 131.124%. With `c1ccc(CNc2nc(-c3ccncc3)cs2)cc1` [CBK058609] the “% of control remaining” value was 135.3%. `CCN(CC)CCOC(=O)NS(=O)(=O)c1ccc(Cl)cc1` [CBK288510] was tested, and the “% of control remaining” value was 99.1791%. For `CCc1nn(CC(=O)N(CC)CC)c(=O)c2cc3sc(C)cc3n12` [CBK284121], the “% of control remaining” value was 137.169%. With `Cn1c(=O)n(CC(=O)NCc2ccccc2F)c2cccnc21` [CBK283909] the “% of control remaining” value was 115.969%. With `NC(=O)c1cc(Cc2ccccc2)sc1NC(=O)c1cccnc1` [CBK268168] the “% of control remaining” value was 121.927%. `O=C(CSc1nnc(-c2cc(Br)ccc2O)n1-c1ccccc1)N1CCc2ccccc21` [CBK268346] was tested, and the “% of control remaining” value was 146.988%. For `CC(C)Oc1cc(NC(=O)CS(=O)(=O)CC(=O)N(C)C)c(Cl)cc1Cl` [CBK018112], the “% of control remaining” value was 120.873%. In the case of `COc1ccc(C(C)C)cc1-c1ccnc2[nH]c(=O)ccc12` [CBK073735], the “% of control remaining” value is reported as 103.077%. For `Cc1cc(COc2nccnc2OC2CCN(Cc3ccc(Cl)cc3)CC2)no1` [CBK082949T], the “% of control remaining” value was 122.126%. With `COc1cc(CN2CCN(Cc3ccccc3F)CC2)cc(OC)c1O` [CBK264219] the “% of control remaining” value was 100%. `CC1CCc2c(sc(NC(=O)CCN3C(=O)c4ccccc4C3=O)c2C(N)=O)C1` (centres unmarked) [CBK263667] was tested, and the “% of control remaining” value was 95.0265%. With `CN(CCOC(=O)c1cccs1)C(C)(C)C` [CBK027559C] the “% of control remaining” value was 160.058%. For `CC(NC(=O)c1cc2ccccc2c(=O)[nH]1)c1ccc(-c2ccccc2)cc1` (centres unmarked) [CBK297936], the “% of control remaining” value was 110.751%. In the case of `O=C(Cn1nnc2ccccc21)Nc1ccc(Cl)cn1` [CBK296068], the “% of control remaining” value is reported as 150.474%. In the case of `CC[C@H]1CN(C(=O)c2cccnc2)CC[C@H]1CC(=O)NCc1ccc(F)cc1` [CBK289143], the “% of control remaining” value is reported as 120.327%. With `CS(=O)(=O)c1ccc(-c2ccc(C(=O)N3CCN(Cc4ccc(F)c(F)c4)CC3)nc2)cc1` [CBK160485] the “% of control remaining” value was 99.6197%. In the case of `CCn1c(CN2CCCC2c2nc(N(C)C)ncc2-c2cccc(F)c2)nc2ccccc21` (centres unmarked) [CBK286500], the “% of control remaining” value is reported as 93.9093%. `CCOc1ccc(-c2ccnc(N[C@H]3CC[C@@H](N)CC3)n2)cc1C(=O)O` [CBK307104] was tested, and the “% of control remaining” value was 158.82%. With `COc1ccccc1C1OC(=O)CC1C(=O)N1CCN(c2ccc(Cl)cc2)CC1` (centres unmarked) [CBK091332] the “% of control remaining” value was 108.232%. In the case of `Cc1ccc(C#N)c(NS(=O)(=O)c2cc(C)c(Cl)cc2C)c1` [CBK045250], the “% of control remaining” value is reported as 59.8804%. With `CCOC(=O)c1cnn(C2CCCN(Cc3ccc(C#N)o3)C2)c1` (centres unmarked) [CBK304045] the “% of control remaining” value was 80.429%. In the case of `CCOc1cccc(-c2ccc(N(C)CCN(C)C)nc2)c1` [CBK036904], the “% of control remaining” value is reported as 204.084%. With `OC1CCC(Nc2cncc(-c3ccc4ccccc4c3)n2)CC1` (centres unmarked) [CBK065463] the “% of control remaining” value was 115.269%. With `NC(=S)N1N=C2CCCCC2C1c1ccccc1` (centres unmarked) [CBK288371] the “% of control remaining” value was 160.588%. In the case of `CCn1nc(C)c(CNC(=O)N(Cc2ccccn2)CC(C)C)c1C` [CBK304193], the “% of control remaining” value is reported as 98.5265%. For `Cc1ccc2nc(N(CCCN(C)C)C(=O)c3ccco3)sc2c1` [CBK287639], the “% of control remaining” value was 107.955%. With `Cc1cc(C(=O)Oc2cccc(NC3=NS(=O)(=O)c4ccccc43)c2)c2ccccc2n1` [CBK265302] the “% of control remaining” value was 108.924%. With `CC(C)(C)OC(=O)N1CCC(NC(=O)c2ccc(-c3ccc(S(C)(=O)=O)cc3)cn2)CC1` [CBK174352] the “% of control remaining” value was 141.508%. In the case of `Clc1ccc(OCCCn2ccnc2)c(CN2CCSCC2)c1` [CBK307194], the “% of control remaining” value is reported as 125.094%. With `COc1ccc(-n2nc3cc(C)c(NC(=S)NC(=O)c4oc5ccccc5c4C)cc3n2)cc1` [CBK264188] the “% of control remaining” value was 94.3766%. For `O=[N+]([O-])c1ccc2c(c1)oc1ccc(S(=O)(=O)N3CCCC3)cc12` [CBK268512], the “% of control remaining” value was 92.693%. `Nc1ccc(S(=O)(=O)Nc2nccc(/C=C/c3ccc(Cl)cc3)n2)cc1` [CBK263254] was tested, and the “% of control remaining” value was 52.6218%. For `COc1cccc2ncn(CCc3csc(N)n3)c(=O)c12` [CBK307679], the “% of control remaining” value was 100.089%. With `O=C(CSCCOc1ccc(Br)cc1)Nc1ccc2c(c1)OCCO2` [CBK296714] the “% of control remaining” value was 120.496%. `COC(=O)CCC(=O)Nc1ccc(S(N)(=O)=O)cc1` [CBK261351] was tested, and the “% of control remaining” value was 106.779%. For `CCn1cc(-c2cncn2CC(C)N2CCC(C)CC2)cn1` (centres unmarked) [CBK281565], the “% of control remaining” value was 123.961%. With `NS(=O)(=O)c1ccc(NC2=NC(=O)C(CC(=O)Nc3ccccc3)S2)cc1` (centres unmarked) [CBK266417] the “% of control remaining” value was 163.155%. With `COc1ccc(S(=O)(=O)NC(C)C(=O)NCc2cccnc2)cc1Cl` (centres unmarked) [CBK269384] the “% of control remaining” value was 120.088%. `O=C(O)c1ccccc1SC1CC(=O)N(CCc2ccccc2)C1=O` (centres unmarked) [CBK269321] was tested, and the “% of control remaining” value was 77.4011%. For `CC(C)(C)c1cn(C[C@H]2CC3CCN2C[C@@H]3C(=O)N2CCOCC2)nn1` (some centres unmarked) [CBK288735], the “% of control remaining” value was 137.991%. In the case of `Cc1csc(NC(=O)c2c(C)c(C)n[nH]c2=O)n1` [CBK297759], the “% of control remaining” value is reported as 133.833%. `COc1ccc(-c2noc(COc3cccc(C(=O)O)c3)n2)c(OC)c1` [CBK298279] was tested, and the “% of control remaining” value was 157.655%. With `COc1cccc(NC(=O)CCn2ncc(Cl)c2C)c1` [CBK288012] the “% of control remaining” value was 100.265%. In the case of `Cc1csc(C2CN(Cc3ccn(C)c(=O)c3)CCO2)n1` (centres unmarked) [CBK305763], the “% of control remaining” value is reported as 102.882%. In the case of `Cc1cc(=[N+]2CCCCC2)cc(C)o1` [CBK022824I], the “% of control remaining” value is reported as 137.364%. With `CC(C)(C)c1ccc(S(=O)(=O)N2CCC3(CC2)OCCO3)cc1` [CBK038429] the “% of control remaining” value was 76.7353%. With `CNc1nc(N(C)C)nc(-n2cnc(SCCOc3ccccc3C)n2)n1` [CBK288564] the “% of control remaining” value was 116.997%. In the case of `Cc1sc(NC(=O)c2ccccc2)c(C(Nc2ccccn2)c2ccc(F)cc2)c1C` (centres unmarked) [CBK296957], the “% of control remaining” value is reported as 117.97%. `CC(=O)Nc1cccc(NS(=O)(=O)c2ccc(N3CCNCC3)c3ccccc23)c1` [CBK028702C] was tested, and the “% of control remaining” value was 122.474%. In the case of `FC(F)(F)c1cccc(-n2cc(-c3cccnc3)nn2)c1` [CBK113053], the “% of control remaining” value is reported as 112.575%. `O=C(CN1CCCCC1)Nc1ccc(NC(=O)CN2CCCCC2)cc1` [CBK265421] was tested, and the “% of control remaining” value was 106.79%. For `Nc1ccccc1-c1ccccc1NC(=O)C(=O)O` [CBK266824], the “% of control remaining” value was 77.3268%. For `COC(=O)[C@H]1CN(C(=O)CN2CCCC2=O)C[C@@H]1c1ccc(F)cc1` [CBK283507], the “% of control remaining” value was 127.811%. `O=C(CCCn1c(=O)[nH]c2ccsc2c1=O)Nc1ccc(F)cc1` [CBK287769] was tested, and the “% of control remaining” value was 99.718%. With `O=C(O)c1[nH]c2ccccc2c1C(c1c(F)cccc1Cl)c1c(C(=O)O)[nH]c2ccccc12` [CBK267797] the “% of control remaining” value was 132.307%. `O=[N+]([O-])c1cccc(-c2nc(-c3ccccc3)c(-c3ccc4oc5ccc(-c6[nH]c(-c7cccc([N+](=O)[O-])c7)nc6-c6ccccc6)cc5c4c3)[nH]2)c1` [CBK261433] was tested, and the “% of control remaining” value was 116.462%. In the case of `CCNc1nc(-c2ccc(S(C)(=O)=O)cc2)cn2ccnc12` [CBK066452], the “% of control remaining” value is reported as 165.172%. `CCCn1cnc2cc(NC(=O)C3CCN(S(=O)(=O)c4ccc(F)cc4)C3)ccc21` (centres unmarked) [CBK285704] was tested, and the “% of control remaining” value was 134.31%. With `Cc1ccc(-n2ncc3c(=O)n(Cc4ccccc4C)cnc32)c(C)c1` [CBK287695] the “% of control remaining” value was 116.26%. With `CC(C)(C)OC(=O)N1CCC[C@]2(CCC(=O)N2)[C@H]1c1ccc(F)cc1` [CBK283462] the “% of control remaining” value was 146.97%. With `CCc1nc2ccc(C(=O)N(C)Cc3ccco3)cn2c1N(C)C(=O)c1ccncc1` [CBK145479] the “% of control remaining” value was 114.847%. For `CSc1nnc2c(n1)OC(/C=C/c1ccccc1)N(C(C)=O)c1ccccc1-2` (centres unmarked) [CBK264453], the “% of control remaining” value was 134.784%. In the case of `Cc1ccc(Oc2ccc(NC(=O)Cn3cnnc3C#N)cc2)cc1` [CBK295612], the “% of control remaining” value is reported as 115.762%. For `CC(=O)c1cccc(NC(=O)c2cc(S(=O)(=O)N(C)C)ccc2Cl)c1` [CBK265732], the “% of control remaining” value was 72.9463%. `Cc1cc(CNC(=O)c2cc3ccc(Cl)cc3[nH]2)[nH]n1` [CBK281391] was tested, and the “% of control remaining” value was 134.592%. For `O=S(=O)(NCCc1cccs1)c1cc2c(N3CCNCC3)nccc2s1` [CBK041299C], the “% of control remaining” value was 104.188%. In the case of `COc1nccnc1OC1CCN(CCc2ccccc2)CC1` [CBK084258], the “% of control remaining” value is reported as 113.701%. `O=S(=O)(NCCc1c[nH]c2ccccc12)c1cccc2nsnc12` [CBK057456] was tested, and the “% of control remaining” value was 127.978%. For `COc1ccc(OC)c(S(=O)(=O)N2CCN(C(=O)c3cc(-c4ccncc4)nc4c(C)cc(C)cc34)CC2)c1` [CBK267778], the “% of control remaining” value was 135.413%. With `COc1ccc(C2CC(c3ccc(NS(C)(=O)=O)cc3)=NN2C(=O)CCCC(=O)O)cc1` (centres unmarked) [CBK297780] the “% of control remaining” value was 117.703%. `CC1CCc2n[nH]c(C(=O)NCCCc3ccccn3)c2C1` (centres unmarked) [CBK283194] was tested, and the “% of control remaining” value was 148.345%. For `COc1ccc(-c2cnc(NCC3CC3)c(C(=O)NCCc3c[nH]c4ccccc34)c2)cc1` [CBK076349], the “% of control remaining” value was 106.662%. With `CSc1cccc(NC(=O)c2sc3nc(C)cc(C)c3c2N)c1` [CBK115349] the “% of control remaining” value was 132.263%. With `COc1cccc(-n2ncc(-c3cccnc3)n2)c1` [CBK112813] the “% of control remaining” value was 113.643%. For `COc1ccccc1OCC(=O)Nc1cnc(-c2cccc(C)c2)c(-c2cccnc2)n1` [CBK037112], the “% of control remaining” value was 190.878%.
